Test results as given in patent US20140213771A1.
Results are given in words; binding and its absence hold for the method and conditions named. Some results given as binding are weak or reduced against the parent protein; the word gives no strength.

Target: IL-17 (UniProt Q16552)
Assay: SPR; clone 4 captured on anti huIgG FC surface, antigens (500 nM each) injected sequentially

pDVD-Ig clone 4 (from UniProt P0DOX5 218-449; P0DOX5 218-449)
binding: binds
